Two molecules from patent publication US20180215825A1 can be followed below.

Protein sequences, listed by entry. Tags and fused reporters are not part of them. Lines headed by an entry give the natural chain unless they say otherwise; changes in a name come on top. Chains listed by the source or under a name are the forms on record and can include a tag or linker.
cynomolgus monkey PD-L1/His (cynomolgus monkey (Macaca fascicularis)) (G7PSE7, form named): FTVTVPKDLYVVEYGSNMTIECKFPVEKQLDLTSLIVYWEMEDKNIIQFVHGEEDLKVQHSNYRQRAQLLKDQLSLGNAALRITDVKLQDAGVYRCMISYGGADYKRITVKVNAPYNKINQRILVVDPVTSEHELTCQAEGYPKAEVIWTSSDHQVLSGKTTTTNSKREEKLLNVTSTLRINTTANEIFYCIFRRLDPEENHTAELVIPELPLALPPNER

The assay addresses cynomolgus monkey PD-L1/His (cynomolgus monkey (Macaca fascicularis)) (UniProt G7PSE7). The experiment in a line: SPR. Background: SPR reads the build-up and loss of mass on a sensor chip optically.

These are yes or no findings as the source states them, for the method shown. Some results given as binding are weak or reduced against the parent protein; the word gives no strength.

B1: hu333-4A2 Fab (Fab, V domains shown)
VH: EVQLVESGGGLVQPGGSLRLSCAVSGFSLTSYGVHWVRQAPGKGLEWVAVIWAGGSTNYVDSVKGRFTISKDNAKNTVYLQMNSLRAEDTAVYYCAKPYGTSAMDYWGQGTLVTVSS
VL: DIQMTQSPSSLSASVGDRVTITCKASQDVGIVVAWYQQKPGKAPKLLIYWASIRHTGVPSRFSGSGSGTEFTLTISSLQPDDFATYYCQQYSNYPLYTFGQGTKVEIK
Take B1: the binding result is listed as “binds”.

B2: hu333-4B2 Fab (Fab, V domains shown)
VH: EVQLVESGGGLVQPGGSLRLSCAVSGFSLTSYGVHWVRQAPGKGLEWVAVIWAGGSTNYADSVKGRFTISKDTSKNTVYLQMNSLRAEDTAVYYCAKPYGTSAMDYWGQGTLVTVSS
VL: DIQMTQSPSSLSASVGDRVTITCKASQDVGIVVAWYQQKPGKAPKLLIYWASIRHTGVPSRFSGSGSGTEFTLTISSLQPDDFATYYCQQYSNYPLYTFGQGTKVEIK
B2: the binding entry was “binds”.
